# ± gives the standard deviation of the averaged measurements. The list shows a part of the results, in another mix than the full data.
# Amino acid sequences for entries named in this document (tags omitted). A change or cut given only in a name is not applied to a line headed by its entry.
# UniProt H0UI80: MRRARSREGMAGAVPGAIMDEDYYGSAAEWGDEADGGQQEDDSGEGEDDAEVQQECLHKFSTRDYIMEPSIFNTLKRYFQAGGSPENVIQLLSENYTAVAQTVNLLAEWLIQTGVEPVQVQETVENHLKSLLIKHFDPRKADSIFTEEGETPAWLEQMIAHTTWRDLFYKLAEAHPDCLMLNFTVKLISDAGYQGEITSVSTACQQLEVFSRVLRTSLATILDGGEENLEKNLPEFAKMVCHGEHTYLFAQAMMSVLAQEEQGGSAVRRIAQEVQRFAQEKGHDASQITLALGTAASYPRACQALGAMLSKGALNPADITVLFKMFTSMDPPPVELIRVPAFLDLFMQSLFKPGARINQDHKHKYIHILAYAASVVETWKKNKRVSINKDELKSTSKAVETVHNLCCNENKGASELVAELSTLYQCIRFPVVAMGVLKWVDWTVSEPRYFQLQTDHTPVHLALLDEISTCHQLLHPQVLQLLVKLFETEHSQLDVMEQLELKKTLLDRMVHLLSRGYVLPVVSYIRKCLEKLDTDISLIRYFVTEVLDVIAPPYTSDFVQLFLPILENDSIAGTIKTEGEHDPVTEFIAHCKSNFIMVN
# UniProt Q8IXH7, whole entry, looked up: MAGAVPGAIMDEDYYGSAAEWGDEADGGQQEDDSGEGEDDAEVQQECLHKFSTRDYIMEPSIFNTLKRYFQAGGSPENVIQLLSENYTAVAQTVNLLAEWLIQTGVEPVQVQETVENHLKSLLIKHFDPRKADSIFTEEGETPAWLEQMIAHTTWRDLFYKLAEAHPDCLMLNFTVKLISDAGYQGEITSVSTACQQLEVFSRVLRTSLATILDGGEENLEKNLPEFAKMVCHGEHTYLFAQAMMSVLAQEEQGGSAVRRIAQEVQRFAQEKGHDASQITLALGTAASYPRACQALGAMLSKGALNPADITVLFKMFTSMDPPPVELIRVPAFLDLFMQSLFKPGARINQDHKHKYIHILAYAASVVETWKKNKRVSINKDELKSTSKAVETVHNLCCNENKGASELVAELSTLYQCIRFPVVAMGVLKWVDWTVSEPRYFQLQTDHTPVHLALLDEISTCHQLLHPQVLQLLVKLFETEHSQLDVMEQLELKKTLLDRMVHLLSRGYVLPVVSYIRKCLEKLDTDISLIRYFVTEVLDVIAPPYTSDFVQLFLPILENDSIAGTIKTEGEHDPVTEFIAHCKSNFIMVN
# UniProt Q15287: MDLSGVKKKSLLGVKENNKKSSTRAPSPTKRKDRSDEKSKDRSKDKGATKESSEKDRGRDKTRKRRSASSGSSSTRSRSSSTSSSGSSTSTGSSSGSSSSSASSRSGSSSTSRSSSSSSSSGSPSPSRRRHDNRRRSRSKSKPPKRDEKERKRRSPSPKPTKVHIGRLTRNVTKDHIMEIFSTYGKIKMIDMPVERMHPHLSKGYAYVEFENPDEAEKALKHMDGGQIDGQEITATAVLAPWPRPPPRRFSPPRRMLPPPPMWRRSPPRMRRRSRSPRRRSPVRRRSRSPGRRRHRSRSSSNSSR
# UniProt P50213: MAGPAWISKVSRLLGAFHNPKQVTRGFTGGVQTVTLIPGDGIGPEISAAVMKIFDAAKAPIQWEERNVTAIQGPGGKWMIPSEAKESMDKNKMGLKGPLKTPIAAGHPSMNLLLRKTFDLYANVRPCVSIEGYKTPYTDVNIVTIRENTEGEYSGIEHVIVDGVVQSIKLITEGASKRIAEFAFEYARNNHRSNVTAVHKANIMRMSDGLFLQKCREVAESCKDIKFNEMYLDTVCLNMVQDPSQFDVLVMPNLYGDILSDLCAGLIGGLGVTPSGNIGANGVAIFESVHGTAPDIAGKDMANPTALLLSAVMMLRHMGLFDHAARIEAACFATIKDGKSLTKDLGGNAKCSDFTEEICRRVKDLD
# UniProt Q9H0E3: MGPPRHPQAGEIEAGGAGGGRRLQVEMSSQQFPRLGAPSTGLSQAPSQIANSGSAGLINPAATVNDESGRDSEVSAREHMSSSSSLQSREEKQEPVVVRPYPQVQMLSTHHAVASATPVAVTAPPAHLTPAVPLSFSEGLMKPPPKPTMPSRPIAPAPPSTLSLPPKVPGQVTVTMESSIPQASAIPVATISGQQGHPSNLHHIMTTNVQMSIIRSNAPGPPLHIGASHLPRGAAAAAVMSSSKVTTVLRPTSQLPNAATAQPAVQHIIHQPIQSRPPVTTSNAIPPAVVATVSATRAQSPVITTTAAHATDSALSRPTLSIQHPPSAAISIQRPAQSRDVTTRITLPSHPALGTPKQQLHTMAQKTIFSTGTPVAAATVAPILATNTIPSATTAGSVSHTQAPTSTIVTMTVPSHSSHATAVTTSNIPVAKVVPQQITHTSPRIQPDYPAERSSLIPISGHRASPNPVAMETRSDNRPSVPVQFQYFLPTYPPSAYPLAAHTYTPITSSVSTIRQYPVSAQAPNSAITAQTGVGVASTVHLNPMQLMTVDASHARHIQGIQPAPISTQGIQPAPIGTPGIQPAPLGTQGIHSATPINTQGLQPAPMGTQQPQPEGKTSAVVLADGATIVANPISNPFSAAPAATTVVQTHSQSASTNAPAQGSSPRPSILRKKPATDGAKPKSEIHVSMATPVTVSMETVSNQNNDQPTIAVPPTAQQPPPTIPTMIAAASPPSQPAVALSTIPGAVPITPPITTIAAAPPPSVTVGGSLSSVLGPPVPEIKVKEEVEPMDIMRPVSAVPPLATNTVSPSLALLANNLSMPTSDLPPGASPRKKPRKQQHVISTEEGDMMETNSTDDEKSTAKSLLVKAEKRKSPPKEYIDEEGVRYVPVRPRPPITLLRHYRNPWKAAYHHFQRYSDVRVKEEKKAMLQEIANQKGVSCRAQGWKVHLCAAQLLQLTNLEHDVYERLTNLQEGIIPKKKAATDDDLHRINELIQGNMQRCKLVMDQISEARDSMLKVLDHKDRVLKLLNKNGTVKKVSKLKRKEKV
# UniProt P06865: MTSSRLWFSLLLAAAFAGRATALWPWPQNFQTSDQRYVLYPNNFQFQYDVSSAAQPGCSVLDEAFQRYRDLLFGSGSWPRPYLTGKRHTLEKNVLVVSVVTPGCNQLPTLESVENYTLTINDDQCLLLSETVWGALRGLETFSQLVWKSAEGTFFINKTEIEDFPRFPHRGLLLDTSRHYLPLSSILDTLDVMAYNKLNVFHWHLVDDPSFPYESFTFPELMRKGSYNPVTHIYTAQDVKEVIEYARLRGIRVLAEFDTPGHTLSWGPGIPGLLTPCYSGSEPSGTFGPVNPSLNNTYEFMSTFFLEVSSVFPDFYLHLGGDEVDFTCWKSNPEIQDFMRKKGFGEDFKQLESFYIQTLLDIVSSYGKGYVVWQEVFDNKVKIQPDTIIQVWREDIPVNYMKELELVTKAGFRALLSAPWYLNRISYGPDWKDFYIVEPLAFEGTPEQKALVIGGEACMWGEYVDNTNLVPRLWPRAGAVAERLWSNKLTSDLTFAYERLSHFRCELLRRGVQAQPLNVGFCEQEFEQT
# UniProt Q9NPR2: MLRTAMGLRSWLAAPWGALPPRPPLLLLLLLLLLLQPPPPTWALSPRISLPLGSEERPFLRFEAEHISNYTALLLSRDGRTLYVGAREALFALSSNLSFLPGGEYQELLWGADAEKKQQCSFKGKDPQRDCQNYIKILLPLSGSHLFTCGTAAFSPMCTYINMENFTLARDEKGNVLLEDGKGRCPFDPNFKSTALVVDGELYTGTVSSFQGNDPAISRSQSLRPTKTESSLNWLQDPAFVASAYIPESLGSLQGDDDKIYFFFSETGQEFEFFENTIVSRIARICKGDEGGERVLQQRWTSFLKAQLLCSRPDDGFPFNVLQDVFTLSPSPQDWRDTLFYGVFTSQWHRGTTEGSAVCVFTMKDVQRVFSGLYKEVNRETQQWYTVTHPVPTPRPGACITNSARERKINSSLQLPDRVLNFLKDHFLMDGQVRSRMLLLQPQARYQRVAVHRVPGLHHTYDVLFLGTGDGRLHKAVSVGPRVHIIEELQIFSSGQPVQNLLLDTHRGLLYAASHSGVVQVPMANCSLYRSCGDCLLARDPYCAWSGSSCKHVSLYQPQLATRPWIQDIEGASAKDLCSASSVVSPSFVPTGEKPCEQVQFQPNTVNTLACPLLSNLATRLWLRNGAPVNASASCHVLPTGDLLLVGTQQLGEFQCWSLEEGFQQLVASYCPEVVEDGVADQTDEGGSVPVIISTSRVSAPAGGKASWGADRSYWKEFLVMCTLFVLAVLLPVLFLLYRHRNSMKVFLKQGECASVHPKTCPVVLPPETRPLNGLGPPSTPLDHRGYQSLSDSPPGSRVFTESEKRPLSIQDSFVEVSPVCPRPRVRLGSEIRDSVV
# UniProt Q8NEW0: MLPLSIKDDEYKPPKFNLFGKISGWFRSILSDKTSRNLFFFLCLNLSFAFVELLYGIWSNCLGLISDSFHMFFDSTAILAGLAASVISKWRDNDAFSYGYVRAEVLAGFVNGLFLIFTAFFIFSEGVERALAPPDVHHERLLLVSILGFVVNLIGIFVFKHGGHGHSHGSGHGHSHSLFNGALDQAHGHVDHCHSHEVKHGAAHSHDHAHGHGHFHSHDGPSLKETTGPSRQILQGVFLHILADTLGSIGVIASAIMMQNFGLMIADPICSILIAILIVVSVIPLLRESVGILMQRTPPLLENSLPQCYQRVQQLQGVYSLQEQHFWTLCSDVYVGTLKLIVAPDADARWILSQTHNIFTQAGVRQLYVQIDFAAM
# UniProt O95166, whole entry: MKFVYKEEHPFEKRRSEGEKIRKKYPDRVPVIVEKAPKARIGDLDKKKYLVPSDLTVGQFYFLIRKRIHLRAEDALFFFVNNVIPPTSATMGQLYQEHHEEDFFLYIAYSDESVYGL
# UniProt P50990: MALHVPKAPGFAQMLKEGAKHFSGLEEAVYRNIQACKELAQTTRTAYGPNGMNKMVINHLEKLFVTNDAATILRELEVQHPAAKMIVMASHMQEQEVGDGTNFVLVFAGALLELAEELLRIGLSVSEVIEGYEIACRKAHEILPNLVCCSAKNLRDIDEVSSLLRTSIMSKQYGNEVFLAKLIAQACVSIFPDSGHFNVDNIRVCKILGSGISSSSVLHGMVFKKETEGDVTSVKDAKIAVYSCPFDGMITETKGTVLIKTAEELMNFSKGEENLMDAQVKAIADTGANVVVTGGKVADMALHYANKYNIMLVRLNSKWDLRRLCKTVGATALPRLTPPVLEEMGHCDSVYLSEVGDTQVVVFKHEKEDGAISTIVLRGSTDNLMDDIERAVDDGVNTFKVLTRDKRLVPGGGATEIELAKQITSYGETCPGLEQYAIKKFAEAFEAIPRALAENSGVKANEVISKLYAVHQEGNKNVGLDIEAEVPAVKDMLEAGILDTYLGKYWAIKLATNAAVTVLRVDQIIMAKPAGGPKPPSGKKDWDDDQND
# UniProt Q5H9R7: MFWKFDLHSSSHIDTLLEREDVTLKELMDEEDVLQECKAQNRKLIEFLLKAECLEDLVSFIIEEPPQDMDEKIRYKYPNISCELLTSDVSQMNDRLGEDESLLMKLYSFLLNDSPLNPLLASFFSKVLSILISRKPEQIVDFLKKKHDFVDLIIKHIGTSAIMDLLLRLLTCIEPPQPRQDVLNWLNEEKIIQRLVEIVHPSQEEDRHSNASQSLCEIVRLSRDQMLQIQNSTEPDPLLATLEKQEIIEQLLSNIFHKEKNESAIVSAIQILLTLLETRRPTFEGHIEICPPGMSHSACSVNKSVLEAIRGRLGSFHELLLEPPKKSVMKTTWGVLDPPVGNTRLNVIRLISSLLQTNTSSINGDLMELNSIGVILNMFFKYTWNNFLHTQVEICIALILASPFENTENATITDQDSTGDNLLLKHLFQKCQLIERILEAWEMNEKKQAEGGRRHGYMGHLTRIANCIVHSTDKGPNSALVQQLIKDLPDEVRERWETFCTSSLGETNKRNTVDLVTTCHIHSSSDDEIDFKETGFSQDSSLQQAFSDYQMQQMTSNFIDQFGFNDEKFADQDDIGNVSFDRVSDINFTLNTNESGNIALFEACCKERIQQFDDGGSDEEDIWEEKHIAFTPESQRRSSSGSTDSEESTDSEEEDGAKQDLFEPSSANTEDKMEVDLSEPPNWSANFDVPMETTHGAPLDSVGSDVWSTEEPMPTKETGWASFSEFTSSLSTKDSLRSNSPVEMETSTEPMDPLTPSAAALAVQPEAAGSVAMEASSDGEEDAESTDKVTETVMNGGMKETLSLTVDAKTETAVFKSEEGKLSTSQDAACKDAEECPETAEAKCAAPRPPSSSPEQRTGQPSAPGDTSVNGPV
# UniProt Q9UHR5: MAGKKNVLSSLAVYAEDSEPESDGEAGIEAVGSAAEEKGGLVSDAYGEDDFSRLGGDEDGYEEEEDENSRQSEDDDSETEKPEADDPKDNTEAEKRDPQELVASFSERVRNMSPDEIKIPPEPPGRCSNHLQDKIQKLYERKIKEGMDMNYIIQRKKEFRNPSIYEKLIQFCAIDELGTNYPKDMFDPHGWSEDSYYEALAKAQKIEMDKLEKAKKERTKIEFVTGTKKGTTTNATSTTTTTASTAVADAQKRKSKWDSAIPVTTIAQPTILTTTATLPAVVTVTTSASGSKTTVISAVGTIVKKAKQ
# Compound: Nc1ncnc2c1ncn2[C@@H]1O[C@H](COP(=O)(O)OP(=O)(O)NP(=O)(O)O)[C@@H](O)[C@H]1O [adenylyl imidodiphosphate]
# Assay: NP40-soluble protein abundance relative to vehicle (solubility fold change) (ratio); higher = more soluble protein in presence of AMP-PNP
# How it was run: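 Crude Jurkat lysate, prepared by Dounce homogenisation, was exposed to eight concentrations from 0.1 to 10 mM for 10 min at room temperature and then 3 min at 37 °C. Solubilisation used 0.8% NP40 with benzonase for 60 min at 4 °C, followed by ultracentrifugation and TMT labelling of the supernatant for LC-MS/MS. After vsn normalisation of intensities, each value is the fold change against the detergent-processed vehicle within each replicate, across three independent experiments.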
Target,NP40-soluble protein abundance (concentration: 1mM),NP40-soluble protein abundance (concentration: 2mM),NP40-soluble protein abundance (concentration: 4mM),NP40-soluble protein abundance (concentration: 6mM),NP40-soluble protein abundance (concentration: 8mM),NP40-soluble protein abundance (concentration: 10mM)
H0UI80 and related entries (UniProt X6RLT1+Q8IXH7+H0UI80),1.01 ± 0.012,0.983 ± 0.037,1.02 ± 0.023,0.926 ± 0.065,0.945 ± 0.08,0.925 ± 0.043
G3V532 and related entries (UniProt O75843),0.964 ± 0.056,0.958 ± 0.0084,0.947 ± 0.05,0.928 ± 0.046,0.927 ± 0.068,0.901 ± 0.045
H0YNU5 and related entries (UniProt P54132),1.02 ± 0.033,1.02 ± 0.048,1.01 ± 0.038,1.06 ± 0.028,1.05 ± 0.045,1.08 ± 0.058
H3BMM9 and related entries (UniProt Q15287),1.08 ± 0.1,1.07 ± 0.032,0.989 ± 0.061,0.987 ± 0.071,0.931 ± 0.078,0.998 ± 0.11
H0YLF8 and related entries (UniProt P50213),0.982 ± 0.025,0.938 ± 0.025,0.964 ± 0.041,1.01 ± 0.063,1 ± 0.036,0.993 ± 0.042
H0YHA7 and related entries (UniProt Q07020),1.02 ± 0.038,0.9774 ± 0.0023,1.01 ± 0.086,0.9115 ± 0.0037,0.766 ± 0.042,1.04 ± 0.082
H0Y659 and related entries (UniProt Q7Z6Z7),0.996 ± 0.012,0.9889 ± 0.0057,0.9758 ± 0.0051,0.962 ± 0.023,0.948 ± 0.023,0.948 ± 0.039
J3KP15 and related entries (UniProt Q01130),1.03 ± 0.036,1.1 ± 0.14,1 ± 0.035,1.01 ± 0.067,0.969 ± 0.059,1.02 ± 0.1
J3KQ72 and related entries (UniProt Q9NRD1),0.96 ± 0.027,0.988 ± 0.052,0.9952 ± 0.0094,0.9848 ± 0.0095,0.9629 ± 0.0083,0.955 ± 0.028
J3KNN3 and related entries (UniProt P15735),1.02 ± 0.033,0.969 ± 0.092,1.01 ± 0.066,0.954 ± 0.064,0.974 ± 0.046,0.956 ± 0.072
J3KS51 and related entries (UniProt O75376),1.02 ± 0.049,1.06 ± 0.028,1.03 ± 0.035,0.989 ± 0.058,0.959 ± 0.032,1.01 ± 0.046
G5E9V6 and related entries (UniProt Q8IUR7),0.968 ± 0.04,0.939 ± 0.058,0.972 ± 0.061,0.945 ± 0.051,0.917 ± 0.076,0.924 ± 0.074
J3KTL2 and related entries (UniProt Q07955),1.08 ± 0.063,1.15 ± 0.11,1.05 ± 0.072,1.03 ± 0.049,0.958 ± 0.049,1.08 ± 0.14
J3KN32 and related entries (UniProt Q9UKL0),1.01 ± 0.036,1.04 ± 0.076,1.03 ± 0.065,1.08 ± 0.021,1.07 ± 0.035,1.13 ± 0.11
H7BXF5 and related entries (UniProt Q9H0E3),1.05 ± 0.041,1.09 ± 0.035,1.02 ± 0.03,1.03 ± 0.039,0.993 ± 0.016,1.05 ± 0.057
H3BTB7 and related entries (UniProt Q5JPH6),0.978 ± 0.042,0.934 ± 0.081,0.98 ± 0.027,0.996 ± 0.043,1.006 ± 0.0083,0.968 ± 0.015
H3BP20 and related entries (UniProt P06865),0.949 ± 0.072,0.911 ± 0.036,0.946 ± 0.035,1.01 ± 0.11,0.986 ± 0.088,0.966 ± 0.072
J3KNP4 and related entries (UniProt Q9NPR2),1.02 ± 0.015,1.03 ± 0.036,1.01 ± 0.033,1.02 ± 0.026,1 ± 0.039,1 ± 0.042
H0YIS7 and related entries (UniProt Q8IXM2+H0YIS7),0.967 ± 0.029,1 ± 0.025,0.944 ± 0.043,1 ± 0.017,0.9583 ± 0.0013,1 ± 0.073
H0Y362 and related entries (UniProt Q8NEW0),0.9891 ± 0.0011,0.958 ± 0.011,0.976 ± 0.019,0.983 ± 0.022,0.998 ± 0.016,0.9649 ± 0.004
H6UMI1 and related entries (UniProt O95166),1.07 ± 0.053,1 ± 0.051,1.01 ± 0.076,1.01 ± 0.035,1.01 ± 0.045,0.9706 ± 0.004
H7C0D5 and related entries (UniProt Q9BSR8),0.978 ± 0.082,0.971 ± 0.029,0.956 ± 0.1,0.956 ± 0.024,0.94 ± 0.066,0.976 ± 0.05
G8JLB3 and related entries (UniProt Q9Y606),0.9809 ± 0.0094,0.948 ± 0.058,1 ± 0.018,0.986 ± 0.009,0.989 ± 0.019,0.994 ± 0.033
H0YLE6 and related entries (UniProt Q9NWH9),1.05 ± 0.044,1.11 ± 0.083,1.08 ± 0.039,1.12 ± 0.092,1.11 ± 0.094,1.17 ± 0.094
H7C4C8 and related entries (UniProt P50990),0.972 ± 0.057,0.964 ± 0.027,0.929 ± 0.069,0.935 ± 0.086,0.912 ± 0.091,0.931 ± 0.13
H0YDK9 and related entries (UniProt Q5H9R7),0.954 ± 0.023,0.981 ± 0.042,0.949 ± 0.014,0.936 ± 0.018,0.896 ± 0.026,0.882 ± 0.02
H3BPB8 and related entries (UniProt P34949),1.029 ± 0.0072,1.01 ± 0.039,1.02 ± 0.027,0.976 ± 0.029,1.01 ± 0.042,0.988 ± 0.048
J3KNW7 and related entries (UniProt Q9Y592),0.9829 ± 0.0023,0.9724 ± 0.0032,0.977 ± 0.029,0.9893 ± 0.0026,1.02 ± 0.016,1 ± 0.022
J3QQJ0 and related entries (UniProt Q9UHR5),0.975 ± 0.033,1.05 ± 0.13,0.989 ± 0.054,0.985 ± 0.048,0.985 ± 0.029,1.03 ± 0.03
J3KPC5 and related entries (UniProt P47736),0.99 ± 0.024,1.02 ± 0.034,1.02 ± 0.0079,0.9669 ± 0.00046,0.956 ± 0.022,0.991 ± 0.013

# Part of the list above, bar-delimited:
Target | NP40-soluble protein abundance (concentration: 1mM) | NP40-soluble protein abundance (concentration: 2mM) | NP40-soluble protein abundance (concentration: 4mM) | NP40-soluble protein abundance (concentration: 6mM) | NP40-soluble protein abundance (concentration: 8mM) | NP40-soluble protein abundance (concentration: 10mM)
H0YHA7 and related entries (UniProt Q07020) | 1.02 ± 0.038 | 0.9774 ± 0.0023 | 1.01 ± 0.086 | 0.9115 ± 0.0037 | 0.766 ± 0.042 | 1.04 ± 0.082
J3KQ72 and related entries (UniProt Q9NRD1) | 0.96 ± 0.027 | 0.988 ± 0.052 | 0.9952 ± 0.0094 | 0.9848 ± 0.0095 | 0.9629 ± 0.0083 | 0.955 ± 0.028

# Reference: the supplement of paper PMC6411743
